The supplement of paper PMC10338343
± gives the standard deviation. Only a part is listed here, and it is no random draw. The uncertainty is large for many entries.

These sequences were tested on MIWI (PIWIL1) piRISC loaded with piRNA #2 (30 nt) (assay: pre-steady-state target cleavage rate (min^-1); MIWI and MILI are mouse PIWI proteins and EfPiwi is from a freshwater sponge; tags in brackets are library labels; higher = faster piRNA-guided slicing of the target). Conditions: guide: piRNA #2 5'p-UUAGGUAACCCAGUAGAUCCAGAGGAAUUC; auxiliary factor: 500 nM mouse GTSF1.
In short: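 Cleave-'n-Seq used a transcribed, DNA-blocked target RNA library at 0.1 nM and active affinity-purified piRISC with one synthetic guide at 1 nM, with or without 500 nM GTSF1 partner protein, in HEPES–potassium acetate buffer at 33 °C for 0–8 or 0–960 min. Uncleaved targets were sequenced and normalised to depth and to weakly complementary targets, and three trials were pooled with k3 capped at 0.0001 min^-1. The pre-steady-state cleavage rate was estimated by a burst-and-steady-state fit.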

Row | Sequence | pre-steady-state target cleavage rate
1 | GAAUUCCUCUGGAUUCUACUGGGUUACCUAA | 0.224 ± 0.036
2 | CUUAAGGUCUGGAUCUACUGGCUAACCUAA | 0.0066 ± 0.0075
3 | CAAUUCCUCCGGAUCUACUGGGUUACCUAA | 0.677 ± 0.096
4 | CUUAAGGUCUGGAUCUUGUGGGUUACCUAA | 0.00238 ± 0.0075
5 | CUUAAGGAGACCUAGAACUGGGUUACUUAA | 0.00028 ± 0.034
6 | CUUAAGGAGACCAUCUACUGCGUUACCUAA | 0.00259 ± 0.0034
7 | CUAAUCCUCUGGAUCUACUGGGUUACGUAA | 0.66 ± 0.052
8 | CUUAAGGUCUGGAUCUACUGGAGUUACCUAA | 0.000263 ± 0.023
9 | CUUAAGGAGACGAUCUACUGGGUUACUAA | 0.000188 ± 0.02
10 | CUUAACCUCUGGAUCUACAUGGGUUACCUAA | 0.00095 ± 0.0092
11 | CUUAAGGAGACCUAGAUGUAGGGUUACCUAA | 0.000438 ± 0.019
12 | CUUAAGGAGACCUUCUACUGCCUUACCUAA | 0.00122 ± 0.007
13 | CUUAAGGAGACCUUCUACUGGGUAACCUAA | 0.00115 ± 0.0059
14 | CUUAAGGAGUGGAUCUACUGGGUUAGCAAA | 0.000657 ± 0.023
15 | GAAUUCCUCUGGAUCUAGUGGGAUACCUAA | 0.0616 ± 0.011
16 | CUUAAGGAGACCUUCUACUGGCAUACCUAA | 0.00199 ± 0.0044
17 | CUUAAGGAGUGGAUCUACUGCCUUACCUAA | 0.000546 ± 0.015
18 | CUUAAGGAGACCUUCUACUGGAUUACCUAA | 0.000468 ± 0.008
19 | CUUUUCCUCUGGAUCUACUGCCUUACCUAA | 0.0739 ± 0.012
20 | CUUAAGGAGACCUUCUACUGGGUUACCAA | 0.00153 ± 0.0094
21 | CUUAAGGAGACCUAGAUGUGGGUUACAUAA | 0.000418 ± 0.016
22 | CUUAAGGAGACCUAGAUCUGGUUACCUAA | 0.000346 ± 0.01
23 | CUUAAGGAGACCUAGAUGUGAGGUUACCUAA | 0.000926 ± 0.0097
24 | CUUAAGGAGACCUAGUUCUGGGUUACCUAA | 0.000998 ± 0.0074
25 | CUUAAGGAGACCAUCUACUGGGUUACCUA | 0.00195 ± 0.0045
26 | CUUAAGGAGACCUAGAUCUGGGUUACCUAAA | 0.00119 ± 0.005

Row | Sequence | pre-steady-state target cleavage rate
27 | CUUAAGGACUGGAUCUACAGCGUUACCUAA | 0.00714 ± 0.0051
28 | CUUAAGGAGACCAACAACUGGGUUACCUAA | 0.00107 ± 0.014
29 | CUUAAGGAGAGGAUCAACUGCGUUACCUAA | 0.00258 ± 0.0033
30 | CUUUUCCUCUGGCAUCUACUGGGUUACCUAA | 0.331 ± 0.089
31 | CUUAAGGAGACCUUCUACUGGGUUACCUAG [g2:g17:cont:t1G] | 0.00304 ± 0.0043
32 | CUUAAGGAGACCAUGCUACUGGGUUACCUAA | 0.0021 ± 0.0066
33 | CUUAAGGAGACCUAGAUGAGGCAUACCUAA | 0.000409 ± 0.014
34 | CUUAAGGAGACUAUCUACUGGGUUACCUAA | 0.00326 ± 0.0033
35 | CUUAAGGAGAGGUUCUACUGCGUUACCUAA | 0.00303 ± 0.0038
36 | CUUAAGGAGACCUAGAUCUGGGUAUACCUAA | 0.00127 ± 0.0053
37 | CAAUUCCUCUGGAUCUACUGGGUUACGUAA | 0.598 ± 0.065
38 | CAAUUCCUCUGGAUCUACUGGGUAUGGAUA [g8:g29:cont:t1A] | 0.000567 ± 0.013
39 | CUAUACCUCUGGUUCUACUGGGUUACCUAA | 0.696 ± 0.053
40 | CUUAAGGAGACGAUCUACUCGGUUACGUAA | 0.000323 ± 0.015
41 | CUUAUCCUCUGGAUCGUACUGGGUUACCUAA | 0.00456 ± 0.0046
42 | CUUAAGGAGAGGAGUCUACUGGGUUACCUAA | 0.00237 ± 0.0053
43 | CUUAAGGAGACCUUCUACUGCGAUACCUAA | 0.00339 ± 0.0047
44 | CUUAAGGAGACCUACUACUGGGUUACCGUAA | 0.00122 ± 0.0075
45 | CUUAAGGAGUGGAUCUACUGGGUUAGCUUA | 0.00234 ± 0.0056
46 | CUUAAGCUCUGGAUCUACUGGGUUACCUAG [g2:g24:cont:t1G] | 0.0755 ± 0.013
47 | CUUAAGGAGACGAUGUACUGCGUUACCUAA | 0.00164 ± 0.0039
48 | CUUUUCCUCUGGAUCUACUGCGGUUACCUAA | 0.00259 ± 0.0036
49 | CUUAAGGAGUGGAUCUACUGGGUUACCGAA | 0.0437 ± 0.018
50 | CUUAAGGACUGCAUCUACUGCGUUACCUAA | 0.00295 ± 0.013
51 | CUUAAGGAGUGGAUCUACUGCGUUUCCUAA | 0.00293 ± 0.0038
52 | CUUAAGGAGACCUAGAUCUGGGUUACCGUAA | 0.000672 ± 0.013

Some of the entries so far, with each value named:
CUUAAGGAGACCAUGCUACUGGGUUACCUAA
  pre-steady-state target cleavage rate = 0.0021 ± 0.0066
CUUAAGGAGACCUAGAUGAGGCAUACCUAA
  pre-steady-state target cleavage rate = 0.000409 ± 0.014
CUUAAGGAGACUAUCUACUGGGUUACCUAA
  pre-steady-state target cleavage rate = 0.00326 ± 0.0033
CUUAAGGAGAGGUUCUACUGCGUUACCUAA
  pre-steady-state target cleavage rate = 0.00303 ± 0.0038

Continued:

Row | Sequence | pre-steady-state target cleavage rate
53 | CAAUUCCUCUGGAUCUAGUCGGUUACCUAA | 0.00448 ± 0.0049
54 | CUUAAGGAGACCUAGUAGUGGCUUACCUAA | 0.000192 ± 0.03
55 | CUUAAGGAGAGGAUCUACUGGGGUUACCUAA | 0.000198 ± 0.018
56 | CUUAAGGAGACGAACUACUGGGUUACCAAA | 0.000189 ± 0.035
57 | CUUAUCCUCUGGAUCUACUGGCAAACCUAA | 0.00254 ± 0.0042
58 | CUAUUCCUCUGGAUCUACUGGGAAUGGAUA [g9:g28:cont:t1A] | 0.0013 ± 0.008
59 | GAAUUCCUCUCGAUCUACUGGGUUACGUAA | 0.581 ± 0.067
60 | CUUAAGGAGACCAACUACAGGGUUACCUAA | 0.00197 ± 0.0057
61 | CUUAAGGAGACCUACUACUGGGAUACGUAA | 0.000185 ± 0.019
62 | CUUAAGGAGACCUUCUACUGGGUAACGUAA | 0.000957 ± 0.0078
63 | CUUAAGGAGACCUAGAUGACGGUUACCUAG [g2:g10:cont:t1G] | 0.000226 ± 0.026
64 | CUUAAGGAGACCUACAACUGGGAUACCUAA | 0.000111 ± 0.06
65 | CUUAAGGUCUGGAUCUAUGGGUUACCUAA | 0.00273 ± 0.0042
66 | CUUAAGGAGUGGAUCUACAGGGAUACCUAA | 0.00207 ± 0.0053
67 | CUUAAGGAGACGAUCUAGUGGGUUAGCUAA | 0.000586 ± 0.0092
68 | CUUUUCCUCUCGAUCUACUGGGUUACCUAA | 0.602 ± 0.04
69 | CUUUUCCUCUGGAUCUACUGGGUUACAUAA | 0.738 ± 0.042
70 | CUUAAGGAGACGAUCAUCUGGGUUACCUAA | 0.000698 ± 0.011
71 | CAAUUCCUCAGGAUCUACUGGGUUACCUAA | 0.695 ± 0.062
72 | CUUAAGGAGAGGAUCUAUCUGGGUUACCUAA | 0.000165 ± 0.026
73 | CUUAAGGAGACCUAGUACUUGGUUACCUAA | 0.000376 ± 0.019
74 | CUUAAGGAGACCAUACUACUGGGUUACCUAA | 0.00226 ± 0.0044
75 | CUUAAGGAGUGGAUCUACAGGGUUAGCUAA | 0.00357 ± 0.0058
76 | CUUAAGGUCUGGAUCUACUGCCAUACCUAA | 0.000499 ± 0.017
77 | CUUAAGGAGACCUAGAUCUCGGGUUACCUAA | 0.000173 ± 0.032
